Earlier results in patent US20090196910A1, “Sustained-Release Preparation of Statin Drugs” (PFICKER PHARMACEUTICALS LTD., priority 2005, published 2009).

Conditions: after the oral administration; cited from earlier work

## CC(C)c1c(C(=O)Nc2ccccc2)c(-c2ccccc2)c(-c2ccc(F)cc2)n1CC[C@@H](O)C[C@@H](O)CC(=O)O [atovastatin]
  time to plasma peak: 1 to 2 h
